From patent US20040152766A1, “Composition comprising demethylcantharidin in combination with platinum-containing anticancer agents and use thereof” (priority 2003, published 2004)

Tests used:
[1] = test system: Cisplatin-resistant L1210 mouse leukaemia; conditions: 72-hr exposure
[2] = test system: Sensitive parental L1210 mouse leukaemia; format: cell-based; conditions: 72-hr exposure

SMILES	m, slope of the median-effect plot [1]	m, slope of the median-effect plot [2]	m, slope of the median-effect plot ([2]; listed as Demethylcantharidin (DMC))
N.N.O=C([O-])C1(C(=O)[O-])CCC1.[Pt+2] [Carboplatin, reference compound]	0.8792 and 0.8972	1.0537	–
O=C1[O][Pt]2([NH]C3CCCCC3[NH]2)[O]C(=O)C2C3CCC(O3)C12 (stereo not shown) [Complex 5]	0.7887	0.9498	–
N.N.[Cl][Pt][Cl] [Cisplatin, reference compound]	1.6239	1.2405	–
[NH2][Pt]1([NH2])[O]C(=O)C2C3CCC(O3)C2C(=O)[O]1 (stereo not shown) [Complex 1]	2.7684	1.7975	–
O=C1OC(=O)C2C3CCC(O3)C12 (stereo not shown) [DMC, Demethylcantharidin]	1.6107	1.8366	2.4154 and 2.4384 and 2.2353 and 2.6927 and 1.4432
O=C1[O][Pt]2([NH][C@@H]3CCCC[C@H]3[NH]2)[O]C1=O [Oxaliplatin]	0.6145	0.8324	–

“And” between values parts separate entries of the source, which are not always exact repeats. Identical values can stand only once. Like-named read-outs stand apart in the source and are kept apart here.
